Results from article doi:10.1101/2021.01.27.428018.
These are yes or no findings as the source states them, for the method shown. Binding seen in cells or lysates may run through a third protein. A yes stands for co-enrichment or nearness to the bait. Other partners may have been found. For some of these results: Where a sequence is shown, tags or fusion partners need not be part of it.

Sequences of proteins named here, by UniProt entry; tags and fusion partners are left off.
UniProt Q8WXI9: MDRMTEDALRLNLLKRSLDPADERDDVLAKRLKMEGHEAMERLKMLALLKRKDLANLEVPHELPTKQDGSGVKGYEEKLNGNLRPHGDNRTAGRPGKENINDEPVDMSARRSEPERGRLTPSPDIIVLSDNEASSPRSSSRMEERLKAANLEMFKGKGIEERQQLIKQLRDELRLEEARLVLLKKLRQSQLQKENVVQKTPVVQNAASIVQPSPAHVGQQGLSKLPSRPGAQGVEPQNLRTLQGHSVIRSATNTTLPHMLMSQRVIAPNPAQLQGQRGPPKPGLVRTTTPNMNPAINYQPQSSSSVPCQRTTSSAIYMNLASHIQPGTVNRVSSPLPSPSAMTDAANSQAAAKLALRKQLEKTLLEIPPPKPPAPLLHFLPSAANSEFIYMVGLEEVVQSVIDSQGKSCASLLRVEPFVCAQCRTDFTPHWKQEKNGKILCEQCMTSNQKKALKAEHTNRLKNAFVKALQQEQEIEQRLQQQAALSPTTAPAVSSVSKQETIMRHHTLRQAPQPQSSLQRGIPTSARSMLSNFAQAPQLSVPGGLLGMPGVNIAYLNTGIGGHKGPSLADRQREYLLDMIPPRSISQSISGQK
UniProt Q9UBB5: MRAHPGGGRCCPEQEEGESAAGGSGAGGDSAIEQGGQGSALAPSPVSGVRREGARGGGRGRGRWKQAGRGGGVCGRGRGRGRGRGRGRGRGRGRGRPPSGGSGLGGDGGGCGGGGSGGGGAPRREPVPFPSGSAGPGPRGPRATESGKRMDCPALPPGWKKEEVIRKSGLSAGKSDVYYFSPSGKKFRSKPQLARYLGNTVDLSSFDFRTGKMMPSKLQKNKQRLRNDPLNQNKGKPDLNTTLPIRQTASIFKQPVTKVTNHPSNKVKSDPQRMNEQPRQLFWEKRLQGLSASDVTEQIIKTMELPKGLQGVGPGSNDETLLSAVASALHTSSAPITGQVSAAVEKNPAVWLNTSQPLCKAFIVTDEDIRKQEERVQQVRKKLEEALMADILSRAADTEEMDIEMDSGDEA
UniProt Q13185: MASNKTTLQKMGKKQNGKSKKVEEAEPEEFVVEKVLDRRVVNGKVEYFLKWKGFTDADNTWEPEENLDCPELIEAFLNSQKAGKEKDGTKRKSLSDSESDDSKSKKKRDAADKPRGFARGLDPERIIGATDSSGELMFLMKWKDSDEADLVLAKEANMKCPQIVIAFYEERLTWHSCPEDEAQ
UniProt P06732: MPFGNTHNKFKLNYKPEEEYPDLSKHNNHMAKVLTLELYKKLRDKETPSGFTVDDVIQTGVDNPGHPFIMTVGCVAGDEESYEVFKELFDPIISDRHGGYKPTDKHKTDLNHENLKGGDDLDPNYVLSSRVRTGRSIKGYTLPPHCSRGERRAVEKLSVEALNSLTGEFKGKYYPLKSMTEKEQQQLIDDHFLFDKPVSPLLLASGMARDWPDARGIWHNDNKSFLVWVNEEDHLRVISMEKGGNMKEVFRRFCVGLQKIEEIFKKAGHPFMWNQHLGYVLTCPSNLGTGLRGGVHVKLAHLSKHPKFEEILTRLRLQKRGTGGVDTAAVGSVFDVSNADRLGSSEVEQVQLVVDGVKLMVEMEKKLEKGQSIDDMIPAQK
UniProt Q99873: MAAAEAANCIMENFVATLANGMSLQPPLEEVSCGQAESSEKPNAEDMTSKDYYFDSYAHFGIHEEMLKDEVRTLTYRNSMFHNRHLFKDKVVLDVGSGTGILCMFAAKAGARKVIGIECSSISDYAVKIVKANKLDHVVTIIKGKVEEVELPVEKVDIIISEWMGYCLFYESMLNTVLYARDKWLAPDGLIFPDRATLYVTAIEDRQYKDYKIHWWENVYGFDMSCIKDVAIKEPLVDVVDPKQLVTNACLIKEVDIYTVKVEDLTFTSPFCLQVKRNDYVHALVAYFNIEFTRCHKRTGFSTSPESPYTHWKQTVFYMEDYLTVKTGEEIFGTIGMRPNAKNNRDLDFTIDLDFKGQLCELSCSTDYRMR
UniProt Q5VZL5: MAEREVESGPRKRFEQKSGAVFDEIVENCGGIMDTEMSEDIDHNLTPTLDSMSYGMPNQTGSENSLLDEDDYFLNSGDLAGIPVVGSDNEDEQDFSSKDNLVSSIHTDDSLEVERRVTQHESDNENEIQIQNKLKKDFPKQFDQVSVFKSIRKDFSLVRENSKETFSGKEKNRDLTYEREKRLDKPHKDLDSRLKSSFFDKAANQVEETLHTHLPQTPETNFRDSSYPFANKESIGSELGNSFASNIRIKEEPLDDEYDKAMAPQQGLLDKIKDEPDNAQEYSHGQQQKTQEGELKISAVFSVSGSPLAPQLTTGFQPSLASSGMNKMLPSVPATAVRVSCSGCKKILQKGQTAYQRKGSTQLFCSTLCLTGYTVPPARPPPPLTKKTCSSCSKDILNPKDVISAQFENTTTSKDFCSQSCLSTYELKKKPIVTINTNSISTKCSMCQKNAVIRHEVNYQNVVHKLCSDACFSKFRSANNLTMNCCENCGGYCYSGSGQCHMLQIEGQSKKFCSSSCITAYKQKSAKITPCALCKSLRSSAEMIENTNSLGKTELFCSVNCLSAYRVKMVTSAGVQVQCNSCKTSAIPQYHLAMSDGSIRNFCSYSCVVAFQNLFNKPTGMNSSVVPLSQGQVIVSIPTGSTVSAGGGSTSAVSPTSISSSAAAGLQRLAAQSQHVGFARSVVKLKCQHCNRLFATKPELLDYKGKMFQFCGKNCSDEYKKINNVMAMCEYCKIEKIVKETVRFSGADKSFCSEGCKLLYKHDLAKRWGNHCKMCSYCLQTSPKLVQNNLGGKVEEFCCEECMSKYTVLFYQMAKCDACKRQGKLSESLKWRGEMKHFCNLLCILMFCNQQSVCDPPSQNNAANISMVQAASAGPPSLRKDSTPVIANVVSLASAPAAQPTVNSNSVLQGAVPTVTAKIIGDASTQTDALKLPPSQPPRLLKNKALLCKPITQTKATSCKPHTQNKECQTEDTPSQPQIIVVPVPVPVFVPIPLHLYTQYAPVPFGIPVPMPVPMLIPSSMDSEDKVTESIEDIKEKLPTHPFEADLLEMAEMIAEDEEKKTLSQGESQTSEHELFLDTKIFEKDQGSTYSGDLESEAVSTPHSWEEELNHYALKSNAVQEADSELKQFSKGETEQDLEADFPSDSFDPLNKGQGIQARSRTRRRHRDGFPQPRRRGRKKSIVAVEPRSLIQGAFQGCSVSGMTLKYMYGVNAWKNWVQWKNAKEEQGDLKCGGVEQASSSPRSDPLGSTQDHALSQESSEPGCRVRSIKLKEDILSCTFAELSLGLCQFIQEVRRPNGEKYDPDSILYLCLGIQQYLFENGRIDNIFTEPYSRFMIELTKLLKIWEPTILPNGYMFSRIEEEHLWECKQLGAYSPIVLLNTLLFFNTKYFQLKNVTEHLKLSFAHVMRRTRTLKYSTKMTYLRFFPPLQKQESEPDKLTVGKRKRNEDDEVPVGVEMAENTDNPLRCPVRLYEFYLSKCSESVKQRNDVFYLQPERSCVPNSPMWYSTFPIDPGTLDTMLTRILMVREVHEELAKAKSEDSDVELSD
UniProt O15379: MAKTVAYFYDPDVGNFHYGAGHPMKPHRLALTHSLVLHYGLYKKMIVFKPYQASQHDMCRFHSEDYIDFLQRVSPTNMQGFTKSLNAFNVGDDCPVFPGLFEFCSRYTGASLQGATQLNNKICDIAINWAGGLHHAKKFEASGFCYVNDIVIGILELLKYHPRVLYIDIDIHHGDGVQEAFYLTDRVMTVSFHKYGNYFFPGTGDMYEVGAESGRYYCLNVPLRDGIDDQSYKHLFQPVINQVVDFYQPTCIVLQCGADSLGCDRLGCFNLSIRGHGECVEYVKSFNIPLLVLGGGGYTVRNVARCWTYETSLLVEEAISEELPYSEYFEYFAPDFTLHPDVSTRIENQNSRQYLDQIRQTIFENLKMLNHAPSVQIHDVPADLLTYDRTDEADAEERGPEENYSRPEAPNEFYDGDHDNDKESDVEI
UniProt O75376: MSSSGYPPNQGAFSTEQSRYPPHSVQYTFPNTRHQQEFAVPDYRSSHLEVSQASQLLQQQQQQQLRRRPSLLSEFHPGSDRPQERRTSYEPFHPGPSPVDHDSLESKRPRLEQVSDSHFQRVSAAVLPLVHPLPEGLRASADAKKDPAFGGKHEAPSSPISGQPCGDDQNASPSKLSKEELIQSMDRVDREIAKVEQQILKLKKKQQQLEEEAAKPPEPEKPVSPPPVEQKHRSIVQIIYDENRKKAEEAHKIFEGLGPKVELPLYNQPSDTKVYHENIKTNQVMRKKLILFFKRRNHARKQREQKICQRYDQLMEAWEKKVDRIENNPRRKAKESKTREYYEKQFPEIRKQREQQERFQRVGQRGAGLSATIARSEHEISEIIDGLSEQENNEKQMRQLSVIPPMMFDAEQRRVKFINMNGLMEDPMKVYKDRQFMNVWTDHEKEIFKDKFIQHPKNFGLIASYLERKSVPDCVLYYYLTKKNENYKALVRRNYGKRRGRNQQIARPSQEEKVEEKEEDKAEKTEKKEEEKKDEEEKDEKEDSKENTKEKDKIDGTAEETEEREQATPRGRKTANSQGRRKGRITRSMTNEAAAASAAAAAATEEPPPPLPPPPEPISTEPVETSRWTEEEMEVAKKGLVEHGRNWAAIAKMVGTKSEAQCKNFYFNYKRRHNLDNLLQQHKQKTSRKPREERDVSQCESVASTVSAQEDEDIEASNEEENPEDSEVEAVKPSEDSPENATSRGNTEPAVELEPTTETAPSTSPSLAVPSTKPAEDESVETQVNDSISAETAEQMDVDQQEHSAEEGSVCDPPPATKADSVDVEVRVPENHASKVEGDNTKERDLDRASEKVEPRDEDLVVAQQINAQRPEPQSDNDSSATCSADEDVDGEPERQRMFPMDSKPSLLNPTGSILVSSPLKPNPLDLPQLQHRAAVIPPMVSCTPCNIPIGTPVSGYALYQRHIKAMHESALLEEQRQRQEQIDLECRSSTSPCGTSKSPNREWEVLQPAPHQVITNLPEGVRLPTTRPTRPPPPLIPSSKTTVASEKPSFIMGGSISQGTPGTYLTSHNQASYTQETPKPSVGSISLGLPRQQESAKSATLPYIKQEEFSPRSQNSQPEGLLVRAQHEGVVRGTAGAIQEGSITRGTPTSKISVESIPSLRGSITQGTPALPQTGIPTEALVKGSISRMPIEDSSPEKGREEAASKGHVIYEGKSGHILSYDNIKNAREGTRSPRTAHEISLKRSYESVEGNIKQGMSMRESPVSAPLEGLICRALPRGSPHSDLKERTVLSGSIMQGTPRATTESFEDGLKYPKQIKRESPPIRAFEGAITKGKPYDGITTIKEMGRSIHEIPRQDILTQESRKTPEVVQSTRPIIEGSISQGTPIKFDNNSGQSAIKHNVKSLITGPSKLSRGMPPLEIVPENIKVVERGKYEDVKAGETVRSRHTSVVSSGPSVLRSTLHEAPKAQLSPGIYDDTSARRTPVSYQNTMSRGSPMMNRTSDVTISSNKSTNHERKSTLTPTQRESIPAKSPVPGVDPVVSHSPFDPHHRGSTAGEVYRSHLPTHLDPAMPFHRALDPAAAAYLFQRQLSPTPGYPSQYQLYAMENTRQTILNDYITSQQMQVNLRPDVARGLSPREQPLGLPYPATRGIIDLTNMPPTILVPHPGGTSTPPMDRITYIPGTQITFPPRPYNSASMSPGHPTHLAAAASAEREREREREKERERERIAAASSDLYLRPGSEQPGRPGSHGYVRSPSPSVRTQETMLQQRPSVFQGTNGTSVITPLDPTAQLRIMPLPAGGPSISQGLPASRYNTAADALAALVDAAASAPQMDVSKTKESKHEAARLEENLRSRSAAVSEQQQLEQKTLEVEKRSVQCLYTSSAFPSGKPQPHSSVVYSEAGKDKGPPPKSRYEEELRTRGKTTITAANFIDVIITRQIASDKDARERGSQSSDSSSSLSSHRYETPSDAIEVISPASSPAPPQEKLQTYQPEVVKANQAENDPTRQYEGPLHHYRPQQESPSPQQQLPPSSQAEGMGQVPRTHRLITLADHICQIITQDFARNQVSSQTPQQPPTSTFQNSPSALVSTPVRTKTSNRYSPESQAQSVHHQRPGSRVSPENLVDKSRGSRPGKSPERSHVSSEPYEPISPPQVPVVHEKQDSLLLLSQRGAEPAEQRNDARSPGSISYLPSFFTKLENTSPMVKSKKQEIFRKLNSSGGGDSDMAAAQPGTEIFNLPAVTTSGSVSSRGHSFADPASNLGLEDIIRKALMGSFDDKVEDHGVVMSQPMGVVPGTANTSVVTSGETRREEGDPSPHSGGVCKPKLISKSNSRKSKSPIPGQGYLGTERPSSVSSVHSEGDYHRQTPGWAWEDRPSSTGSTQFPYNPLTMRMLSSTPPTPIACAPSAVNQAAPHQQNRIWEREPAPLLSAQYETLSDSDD

Columns and labels:
Experiment in all cases: affinity purification with mass spectrometry
[1] = biological target: T1, FLAG-ADNP (bait of the PD-MS) (UniProt Q9H2P0)
T1 sequence: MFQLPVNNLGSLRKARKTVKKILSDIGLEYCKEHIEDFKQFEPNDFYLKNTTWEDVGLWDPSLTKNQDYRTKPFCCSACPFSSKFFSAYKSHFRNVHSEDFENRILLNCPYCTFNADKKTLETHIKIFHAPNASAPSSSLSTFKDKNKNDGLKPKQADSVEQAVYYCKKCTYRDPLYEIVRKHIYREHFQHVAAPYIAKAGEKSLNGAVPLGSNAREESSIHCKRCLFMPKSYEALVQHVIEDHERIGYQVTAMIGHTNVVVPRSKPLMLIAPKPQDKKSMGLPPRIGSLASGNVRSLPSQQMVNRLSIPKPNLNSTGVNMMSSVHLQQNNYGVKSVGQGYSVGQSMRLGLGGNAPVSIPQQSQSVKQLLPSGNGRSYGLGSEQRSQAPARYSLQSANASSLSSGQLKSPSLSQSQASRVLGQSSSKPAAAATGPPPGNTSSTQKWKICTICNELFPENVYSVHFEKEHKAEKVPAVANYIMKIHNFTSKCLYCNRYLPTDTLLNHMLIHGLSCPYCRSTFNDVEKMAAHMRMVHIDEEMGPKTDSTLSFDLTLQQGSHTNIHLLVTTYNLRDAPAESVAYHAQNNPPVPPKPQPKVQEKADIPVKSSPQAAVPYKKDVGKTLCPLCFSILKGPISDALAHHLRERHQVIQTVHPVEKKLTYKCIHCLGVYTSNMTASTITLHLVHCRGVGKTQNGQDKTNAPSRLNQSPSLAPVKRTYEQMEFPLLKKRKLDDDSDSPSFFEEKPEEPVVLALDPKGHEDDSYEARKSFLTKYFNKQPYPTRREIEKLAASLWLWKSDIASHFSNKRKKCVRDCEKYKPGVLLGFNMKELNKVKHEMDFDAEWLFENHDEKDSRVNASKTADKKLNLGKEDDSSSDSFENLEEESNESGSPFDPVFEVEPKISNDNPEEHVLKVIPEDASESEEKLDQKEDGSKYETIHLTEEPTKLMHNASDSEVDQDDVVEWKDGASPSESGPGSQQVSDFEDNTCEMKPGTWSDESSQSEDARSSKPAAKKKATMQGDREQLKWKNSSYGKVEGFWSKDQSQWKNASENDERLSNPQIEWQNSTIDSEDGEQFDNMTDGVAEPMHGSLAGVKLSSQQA

[2] = biological target: T2, FLAG-CDK2AP1 (UniProt O14519)
T2 sequence: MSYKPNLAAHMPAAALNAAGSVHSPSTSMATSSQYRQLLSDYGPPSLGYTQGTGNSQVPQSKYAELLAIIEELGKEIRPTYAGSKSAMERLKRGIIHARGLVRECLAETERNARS

[3] = biological target: FLAG-GATAD2B (full-length) (UniProt Q8WXI9)
[4] = biological target: FLAG-MBD2a (UniProt Q9UBB5)

Substance	binding [2]	binding [4]	also measured
CBX3/HP1γ (from UniProt Q13185 1-183)			binding [1]: binds
GSP2 (from UniProt Q13227 1-327)	binds		
KCRM (from UniProt P06732 1-381)			binding [3]: binds
PRMT1 (from UniProt Q99873 1-371) (enzyme)		binds	
SMARCA4 (from UniProt P51532 1-1647)		binds	
SMARCA5 (from UniProt O60264 1-1052)		binds	
ZMYM4 (from UniProt Q5VZL5 1-1548)			binding [1]: binds

Further lines, with some results ahead:

binding [2]	binding [4]	Substance	also measured
binds		HDAC2 (from UniProt Q92769 1-488) (enzyme)	
binds		HDAC3 (from UniProt O15379 1-428) (enzyme)	
binds		NCOR1 (from UniProt O75376 1-2440)	
